Experimental data from US20260034124A1, “NOVEL SALTS AND CRYSTALS” (INTRA-CELLULAR THERAPIES, INC., priority 2022, published 2026).
Some entries share one result that the patent states for a list of compounds. At least one structure is not confirmed: it was looked up by name or label, or the drawing left a doubt.

Assay: Aqueous solubility determination, saturated solution shaken in water, LC
Assay type: physicochemical
Conditions: slurried 24 hours
Description: The aqueous solubility of the successfully reproduced salts is determined by shaking a saturated solution in water. The solubility at pH 7.4 is determined by shaking a saturated solution in a phosphate buffered system. The samples are prepared by the addition of a known amount of water (100-200 μl) and subsequent slurrying with the solid for 24 hours. All samples are then filtered using syringe filters to remove undissolved solids, and then the filtrates are diluted with methanol/acetonitrile (1:1 v/v). LC analysis of the samples is performed, and a calibration line is used for the determination of the solubilities.

## CCCCCCCCc1ccc(S(=O)(=O)O)cc1.CN1CCN2c3c(cccc31)[C@@H]1CN(CCCC(=O)c3ccc(F)cc3)CC[C@@H]12 [4-octylbenzenesulfonate salt, lumateperone 4-octylbenzenesulfonate salt]
  aqueous solubility: under 2 mg/mL
